{"sequences": {"note": "Amino acid sequences for entries named in this document (tags omitted).", "UniProt Q62406": "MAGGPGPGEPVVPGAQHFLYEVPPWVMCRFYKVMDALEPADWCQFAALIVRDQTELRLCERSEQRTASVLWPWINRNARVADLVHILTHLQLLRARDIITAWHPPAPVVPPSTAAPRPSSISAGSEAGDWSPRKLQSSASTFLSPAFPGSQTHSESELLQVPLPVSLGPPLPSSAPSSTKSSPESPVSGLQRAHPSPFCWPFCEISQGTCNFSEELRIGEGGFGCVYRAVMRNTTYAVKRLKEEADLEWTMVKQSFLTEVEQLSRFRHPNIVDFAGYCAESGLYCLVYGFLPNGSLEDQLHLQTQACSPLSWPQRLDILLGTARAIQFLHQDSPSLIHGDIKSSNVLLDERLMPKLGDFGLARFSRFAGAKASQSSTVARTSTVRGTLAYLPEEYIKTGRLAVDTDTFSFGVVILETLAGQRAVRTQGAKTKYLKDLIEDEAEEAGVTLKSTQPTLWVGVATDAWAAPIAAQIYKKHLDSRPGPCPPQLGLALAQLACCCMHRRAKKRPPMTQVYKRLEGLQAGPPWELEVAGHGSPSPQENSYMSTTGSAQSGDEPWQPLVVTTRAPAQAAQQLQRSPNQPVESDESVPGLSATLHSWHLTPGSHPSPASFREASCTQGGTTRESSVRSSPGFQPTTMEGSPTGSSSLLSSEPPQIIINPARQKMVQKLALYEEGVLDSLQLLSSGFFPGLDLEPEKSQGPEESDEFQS"}, "source": "paper PMC3637451", "binders": {"B1": {"name": "TNF receptor-associated factor 6 (protein, UniProt P70196 1-530)", "chain": "MSLLNCENSCGSSQSSSDCCAAMAASCSAAVKDDSVSGSASTGNLSSSFMEEIQGYDVEFDPPLESKYECPICLMALREAVQTPCGHRFCKACIIKSIRDAGHKCPVDNEILLENQLFPDNFAKREILSLTVKCPNKGCLQKMELRHLEDHQVHCEFALVNCPQCQRPFQKCQVNTHIIEDCPRRQVSCVNCAVSMAYEEKEIHDQSCPLANIICEYCGTILIREQMPNHYDLDCPTAPIPCTFSVFGCHEKMQRNHLARHLQENTQLHMRLLAQAVHNVNLALRPCDAASPSRGCRPEDPNYEETIKQLESRLVRQDHQIRELTAKMETQSMYVGELKRTIRTLEDKVAEMEAQQCNGIYIWKIGNFGMHLKSQEEERPVVIHSPGFYTGRPGYKLCMRLHLQLPTAQRCANYISLFVHTMQGEYDSHLPWPFQGTIRLTILDQSEALIRQNHEEVMDAKPELLAFQRPTIPRNPKGFGYVTFMHLEALRQGTFIKDDTLLVRCEVSTRFDMGGLRKEGFQPRSTDAGV"}}, "target": "Interleukin-1 receptor-associated kinase 1 (mouse (endogenous in BMDC)) (UniProt Q62406)", "experiment": "co-IP; IRAK1 antibody (or its agarose conjugate) on lysates of mouse BMDC treated with 100 ng/ml sMLA or sDLA for the indicated times; lysis in 50 mM Tris HCl pH 7.4, 100 mM NaCl, 1 mM EDTA, 50 mM NaF with 1% digitonin or 0.2% NP-40; blots probed for TRAF6 and IRAK1", "note": "Results are given in words; binding and its absence hold for the method and conditions named. In cells and extracts the contact can be indirect. Some results given as binding are weak or reduced against the parent protein; the word gives no strength.", "data": [{"binder": "B1", "values": [{"measurement": "binding", "result": "binds"}]}]}
